By UniProt entry, the sequences of proteins in these tests, tags left out. Where a name states a change or a piece, a line headed by the entry shows the natural chain unless it says otherwise.
UniProt P63277: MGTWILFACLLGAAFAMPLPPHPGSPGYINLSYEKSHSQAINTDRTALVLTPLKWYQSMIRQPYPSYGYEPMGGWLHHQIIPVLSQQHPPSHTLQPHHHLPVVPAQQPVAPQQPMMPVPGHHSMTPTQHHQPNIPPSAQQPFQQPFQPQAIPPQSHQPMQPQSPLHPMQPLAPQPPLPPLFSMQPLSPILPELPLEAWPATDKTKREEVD

According to article PMC7786100:

T1: Recombinant mouse Ambn (ameloblastin) (mouse) (UniProt O55189)
T1 sequence: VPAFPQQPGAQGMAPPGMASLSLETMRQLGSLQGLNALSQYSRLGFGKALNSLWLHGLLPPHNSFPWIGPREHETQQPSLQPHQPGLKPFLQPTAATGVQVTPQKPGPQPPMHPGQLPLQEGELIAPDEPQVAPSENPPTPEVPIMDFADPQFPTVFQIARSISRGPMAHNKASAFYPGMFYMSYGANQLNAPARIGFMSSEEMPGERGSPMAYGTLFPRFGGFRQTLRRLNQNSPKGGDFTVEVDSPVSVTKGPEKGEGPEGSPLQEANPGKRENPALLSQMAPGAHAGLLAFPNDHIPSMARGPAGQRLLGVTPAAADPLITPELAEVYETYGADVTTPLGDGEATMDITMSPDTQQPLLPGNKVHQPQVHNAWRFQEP


Experiments:
[1] = target: T1, Recombinant mouse Ambn (ameloblastin) (mouse); assay: co-IP; Pierce co-IP kit; 10 μg anti-Ambn antibody (AF3026) coupled to resin, 10 μg rAmbn bait bound overnight at 4°C, washed with Dulbecco's PBS, 10 μg prey (rAmel) bound 4 h at 4°C; eluate read by Western blot; both purified
[2] = target: Recombinant mouse Amel (amelogenin) (mouse) (UniProt P63277); assay: co-IP; Pierce co-IP kit; rAmel with rAmbn, rAmbnΔ6 or rAmbnΔ5 (Figure 2A); which protein was bait is not stated; 10 μg bait, 10 μg prey, 4°C; eluate read by Western blot; both purified
[3] = target: Recombinant mouse Amel (amelogenin) (mouse) (UniProt P63277); assay: co-IP; Pierce co-IP kit; 10 μg anti-Amel antibody coupled to resin, 10 μg rAmel bait bound overnight at 4°C, washed with Dulbecco's PBS, 10 μg prey (rAmbn) bound 4 h at 4°C; eluate read by Western blot; both purified

| binding [1] | binding [2] | binding [3] | Molecule |
| --- | --- | --- | --- |
| binds |  |  | Recombinant mouse Amel (amelogenin) (from UniProt P63277-1) |
|  | binds | binds | Recombinant mouse Ambn (ameloblastin) (protein, UniProt O55189 27-407) VPAFPQQPGAQGMAPPGMASLSLETMRQLGSLQGLNALSQYSRLGFGKALNSLWLHGLLPPHNSFPWIGPREHETQQPSLQPHQPGLKPFLQPTAATGVQVTPQKPGPQPPMHPGQLPLQEGELIAPDEPQVAPSENPPTPEVPIMDFADPQFPTVFQIARSISRGPMAHNKASAFYPGMFYMSYGANQLNAPARIGFMSSEEMPGERGSPMAYGTLFPRFGGFRQTLRRLNQNSPKGGDFTVEVDSPVSVTKGPEKGEGPEGSPLQEANPGKRENPALLSQMAPGAHAGLLAFPNDHIPSMARGPAGQRLLGVTPAAADPLITPELAEVYETYGADVTTPLGDGEATMDITMSPDTQQPLLPGNKVHQPQVHNAWRFQEP |
|  | no binding (tested: 10 μg prey protein) |  | Recombinant mouse Ambn mutant with deletion of exon 5 (Ambn p.Y67_Q103del) (protein, UniProt O55189) VPAFPQQPGAQGMAPPGMASLSLETMRQLGSLQGLNALSQPSLQPHQPGLKPFLQPTAATGVQVTPQKPGPQPPMHPGQLPLQEGELIAPDEPQVAPSENPPTPEVPIMDFADPQFPTVFQIARSISRGPMAHNKASAFYPGMFYMSYGANQLNAPARIGFMSSEEMPGERGSPMAYGTLFPRFGGFRQTLRRLNQNSPKGGDFTVEVDSPVSVTKGPEKGEGPEGSPLQEANPGKRENPALLSQMAPGAHAGLLAFPNDHIPSMARGPAGQRLLGVTPAAADPLITPELAEVYETYGADVTTPLGDGEATMDITMSPDTQQPLLPGNKVHQPQVHNAWRFQEP |
|  | binds |  | Recombinant mouse Ambn mutant with deletion of exon 6 (Ambn p.P104_V168del) (protein, UniProt O55189) VPAFPQQPGAQGMAPPGMASLSLETMRQLGSLQGLNALSQYSRLGFGKALNSLWLHGLLPPHNSFPWIGPREHETQQVPIMDFADPQFPTVFQIARSISRGPMAHNKASAFYPGMFYMSYGANQLNAPARIGFMSSEEMPGERGSPMAYGTLFPRFGGFRQTLRRLNQNSPKGGDFTVEVDSPVSVTKGPEKGEGPEGSPLQEANPGKRENPALLSQMAPGAHAGLLAFPNDHIPSMARGPAGQRLLGVTPAAADPLITPELAEVYETYGADVTTPLGDGEATMDITMSPDTQQPLLPGNKVHQPQVHNAWRFQEP |

These are yes or no findings as the source states them, for the method shown. Binding seen in cells or lysates may run through a third protein. Binding calls can cover weak binding; strength is not graded here.
